# According to the supplement of paper PMC12067093, “Discovery and optimisation of a covalent ligand for TRIM25 and its application to targeted protein ubiquitination” (Chemical Science, 2025):
# By UniProt entry, the sequences of proteins in these tests, tags left out. Where a name states a change or a piece, a line headed by the entry shows the natural chain unless it says otherwise.
# UniProt Q7Z7L1: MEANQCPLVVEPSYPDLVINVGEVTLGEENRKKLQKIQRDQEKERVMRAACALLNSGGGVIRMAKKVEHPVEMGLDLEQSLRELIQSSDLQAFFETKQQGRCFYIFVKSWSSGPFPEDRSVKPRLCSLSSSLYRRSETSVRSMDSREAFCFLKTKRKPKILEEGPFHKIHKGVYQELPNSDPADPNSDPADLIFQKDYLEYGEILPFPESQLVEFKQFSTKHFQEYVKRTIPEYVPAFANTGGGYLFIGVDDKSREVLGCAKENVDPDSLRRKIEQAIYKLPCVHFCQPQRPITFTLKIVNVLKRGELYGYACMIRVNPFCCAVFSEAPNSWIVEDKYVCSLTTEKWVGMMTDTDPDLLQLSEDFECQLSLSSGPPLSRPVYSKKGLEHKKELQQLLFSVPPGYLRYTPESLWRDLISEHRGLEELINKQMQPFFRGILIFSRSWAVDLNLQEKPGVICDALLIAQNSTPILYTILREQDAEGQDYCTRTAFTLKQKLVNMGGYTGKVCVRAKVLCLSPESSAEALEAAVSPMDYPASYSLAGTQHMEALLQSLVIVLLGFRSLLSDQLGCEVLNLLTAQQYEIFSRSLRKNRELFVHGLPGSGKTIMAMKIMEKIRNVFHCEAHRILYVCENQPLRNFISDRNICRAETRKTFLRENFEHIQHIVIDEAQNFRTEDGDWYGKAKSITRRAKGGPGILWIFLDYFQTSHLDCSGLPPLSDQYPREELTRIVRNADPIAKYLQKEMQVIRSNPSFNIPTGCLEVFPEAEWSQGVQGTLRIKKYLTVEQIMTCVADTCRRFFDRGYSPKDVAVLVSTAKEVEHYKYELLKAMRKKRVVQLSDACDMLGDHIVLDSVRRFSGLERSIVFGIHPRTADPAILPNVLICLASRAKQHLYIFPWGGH
# Some of the results follow.
# Tests used:
# Assay in all cases: probe-labelled cysteine peptide fold change vs DMSO (competition) (log2 fold change); higher = less target engagement (more negative = stronger competition)
# Settings in all cases: THP-1, incubation time: 4 h
# [1] = target: SLFN11_Q7Z7L1_842_VVQLSDACDMLGDHIVLDSVR (UniProt Q7Z7L1)
# [2] = target: SLFN11_Q7Z7L1_842_VVQLSDACDMLGDHIVLDSVRR (UniProt Q7Z7L1)
# [3] = target: SLTM_Q9NWH9_107_DCELENQEAHEQDGNDELK (UniProt Q9NWH9)
# [4] = target: SLTM_Q9NWH9_107_DCELENQEAHEQDGNDELKDSEEFGENEEENVHSK (UniProt Q9NWH9)
# [5] = target: SLTM_Q9NWH9_107_KHEADELSGDASVEDDAFIKDCELENQEAHEQDGNDELK (UniProt Q9NWH9)
# SLTM_Q9NWH9_441_CIAHLHR = SLTM_Q9NWH9_441_CIAHLHR (UniProt Q9NWH9)
# 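Further: competitive chemoproteomic profiling in live THP-1 cells with an iodoacetamide desthiobiotin (IA-DTB) probe, comparing probe-labelled peptide intensities in compound-treated cells against DMSO-treated controls.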
smiles,measurement,setting,value
CC1Cc2ccccc2N1C(=O)C1CCCN(C(=O)CCl)C1 (mixture of isomers) [TRIM25 ligand 11 (diastereomer mixture)],probe-labelled cysteine peptide fold change,[1]; 10 µM,-0.0658
same,probe-labelled cysteine peptide fold change,[1]; 50 µM,0.0793
same,probe-labelled cysteine peptide fold change,[2]; 10 µM,0.174
same,probe-labelled cysteine peptide fold change,[2]; 50 µM,0.0323
same,probe-labelled cysteine peptide fold change,[3]; 10 µM,0.104
same,probe-labelled cysteine peptide fold change,[3]; 50 µM,-0.0476
same,probe-labelled cysteine peptide fold change,[4]; 10 µM,-0.103
same,probe-labelled cysteine peptide fold change,[4]; 50 µM,-0.075
same,probe-labelled cysteine peptide fold change,[5]; 10 µM,-0.345
same,probe-labelled cysteine peptide fold change,[5]; 50 µM,-0.383
same,probe-labelled cysteine peptide fold change,SLTM_Q9NWH9_441_CIAHLHR; 10 µM,0.124
same,probe-labelled cysteine peptide fold change,SLTM_Q9NWH9_441_CIAHLHR; 50 µM,0.143

# A portion taken from the entries so far, for reference:
smiles,measurement,setting,value
CC1Cc2ccccc2N1C(=O)C1CCCN(C(=O)CCl)C1 (mixture of isomers) [TRIM25 ligand 11 (diastereomer mixture)],probe-labelled cysteine peptide fold change,[3]; 50 µM,-0.0476
same,probe-labelled cysteine peptide fold change,[4]; 10 µM,-0.103
